Test results from the supplement of paper PMC9578143, “Small-Molecule Ebselen Binds to YTHDF Proteins Interfering with the Recognition of N^6-Methyladenosine-Modified RNAs” (ACS Pharmacology & Translational Science, 2022).
The list shows a part of the results. Plates or batches differ in their baseline, so values are only roughly comparable.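 Hits were defined as a z-score below −3.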

molecular target: T1, YTHDF1 YTH domain (aa 365-554) (UniProt Q9BYJ9); assay: tryptophan fluorescence intensity z-score (mean); higher = higher fluorescence, less quenching (negative = binding / quenching); conditions: 10 µM
T1 sequence (whole entry): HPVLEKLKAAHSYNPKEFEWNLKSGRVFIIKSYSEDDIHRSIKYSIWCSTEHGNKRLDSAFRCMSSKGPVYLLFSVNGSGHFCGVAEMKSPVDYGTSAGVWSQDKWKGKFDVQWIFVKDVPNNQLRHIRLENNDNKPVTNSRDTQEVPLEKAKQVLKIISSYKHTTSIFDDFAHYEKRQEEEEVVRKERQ

Tryptophan fluorescence intensity z-score, inactive:
O=c1ccc2cc(O)c(O)cc2o1 (plate: M 21-22) 0.116
C[C@H](CCC(=O)O)[C@H]1CC[C@H]2[C@@H]3[C@H](O)C[C@@H]4C[C@H](O)CC[C@]4(C)[C@H]3C[C@H](O)[C@]12C (plate: M 17-18) 0.406
C[C@H]1O[C@@H](O[C@H]2[C@@H](O)C[C@H](O[C@H]3[C@@H](O)C[C@H](O[C@H]4CC[C@@]5(C)[C@H](CC[C@@H]6[C@@H]5C[C@@H](O)[C@]5(C)[C@@H](C7=CC(=O)OC7)CC[C@]65O)C4)O[C@@H]3C)O[C@@H]2C)C[C@H](O)[C@@H]1O (plate: M 1-2) -0.336
O=C1c2c(O)cccc2C([C@@H]2O[C@H](CO)[C@@H](O)[C@H](O)[C@H]2O)c2cc(CO)cc(O)c21 (stereo partly drawn) (plate: M 21-22) -0.186
CC(C(=O)O)c1ccc2c(c1)[nH]c1ccc(Cl)cc12 (stereo not drawn) (plate: M 7-8) 0.102
C/C1=C2/[N-][C@H]([C@H](CC(N)=O)[C@@]2(C)CCC(=O)NC[C@@H](C)OP(=O)([O-])O[C@H]2[C@@H](O)[C@@H](n3cnc4cc(C)c(C)cc43)O[C@@H]2CO)[C@]2(C)N=C(/C(C)=C3N=C(/C=C4N=C1[C@@H](CCC(N)=O)C\4(C)C)[C@@H](CCC(N)=O)[C@]\3(C)CC(N)=O)[C@@H](CCC(N)=O)[C@]2(C)CC(N)=O.[CH2-][C@H]1O[C@H](n2cnc3c(N)ncnc32)[C@@H](O)[C@H]1O.[Co+3] (plate: M 5-6) -0.181
CN(C)C(=O)C(CCN1CCC(O)(c2ccc(Cl)cc2)CC1)(c1ccccc1)c1ccccc1 (plate: M 13-14) 0.015
Nc1nc2[nH]cnc2c(=S)[nH]1 (plate: M 5-6) -0.397
CC(=O)N1CCCC1C(=O)O (stereo not drawn) (plate: M 23-24) 0.405
Oc1ccc(/C=C/c2cc(O)cc(O)c2)cc1 (plate: M 19-20) -0.221
CCCCCCCCCCCCCCC(C(=O)O)C(O)(CC(=O)OC)C(=O)O (stereo not drawn) (plate: M 15-16) 0.547
Cc1c(N(C)C)c(=O)n(-c2ccccc2)n1C (plate: M 5-6) 0.0592
Oc1c(Cl)cc(Cl)c(Cl)c1Cc1c(O)c(Cl)cc(Cl)c1Cl (plate: M 3-4) -0.655
Cc1cc(=O)[nH]c(=S)[nH]1 (plate: M 3-4) 0.202
COc1cc(C)c2c(c1C=O)Oc1c(c(C)c(O)c3c1C(O)OC3=O)OC2=O (stereo not drawn) (plate: M 17-18) 0.19
CC[C@]1(O)C[C@H]2CN(CCc3c([nH]c4ccccc34)[C@@](C(=O)OC)(c3cc4c(cc3OC)N(C=O)[C@H]3[C@@](O)(C(=O)OC)[C@H](OC(C)=O)[C@]5(CC)C=CCN6CC[C@]43[C@@H]65)C2)C1 (plate: M 11-12) -0.708
COc1ccccc1OCC(O)CO (stereo not drawn) (plate: M 3-4) -0.575
Cc1cccc(C)c1OCC(C)N (stereo not drawn) (plate: M 9-10) 0.0814
CN(C)CCC=C1c2ccccc2COc2ccccc21 (plate: M 3-4) 0.103
CN1CCC[C@@H]1Cc1c[nH]c2ccc(CCS(=O)(=O)c3ccccc3)cc12 (plate: M 11-12) -0.177
CC(C)[N+](C)(CCOC(=O)C1c2ccccc2Oc2ccccc21)C(C)C (plate: M 5-6) -0.0898
COC(=O)C(Cc1ccccc1)NC(=O)/C(=C1/OC(=O)C(c2ccccc2)=C1O)c1ccccc1 (stereo not drawn) (plate: M 19-20) 0.171
CC1=CC(=O)C(C(C)C)=CC1=O (plate: M 23-24) -0.0337
OCc1cccnc1 (plate: M 7-8) -0.0897
O=Cc1ccccc1O[C@@H]1O[C@H](CO)[C@@H](O)[C@H](O)[C@H]1O (plate: M 19-20) 0.566
Cn1cnc2c1c(=O)[nH]c(=O)n2C (plate: M 5-6) -0.247
COc1ccc(-c2oc3cc(OC)c(OC)c(OC)c3c(=O)c2OC)cc1 (plate: M 19-20) -0.401
CCN(CC)CCNC(=O)c1cc(Cl)c(N)cc1OC (plate: M 3-4) -0.386
CCOc1ccc2ccccc2c1C(=O)N[C@@H]1C(=O)N2[C@@H]1SC(C)(C)[C@@H]2C(=O)O (plate: M 3-4) 0.0533
CN(C)C/C=C(/c1ccc(Br)cc1)c1cccnc1 (plate: M 13-14) 0.0419
CC(C)(CO)C(O)C(=O)NCCCO (stereo not drawn) (plate: M 11-12) -0.603
COc1ccc(-c2coc3cc(OC)ccc3c2=O)cc1 (plate: M 15-16) 0.421
C[n+]1c2cc(N)ccc2cc2ccc(N)cc21 (plate: M 5-6) -0.567
CCC[C@@H]1C[C@@H](C(=O)N[C@@H]([C@H]2O[C@H](SC)[C@H](O)[C@@H](O)[C@H]2O)[C@H](C)Cl)N(C)C1 (plate: M 1-2) 0.183
O=C(N[C@H](CO)[C@H](O)c1ccc([N+](=O)[O-])cc1)C(Cl)Cl (plate: M 1-2) 0.837
O=C(O)CCNC(=O)c1ccccc1 (plate: M 23-24) 0.773
C=C[C@@](C)(O)CCC1C(=C)CCC2[C@@](C)(CO)CCC[C@]12C (stereo partly drawn) (plate: M 17-18) 0.136
CN[C@@H]1[C@@H](O[C@H]2O[C@H](CO)[C@@H](N)[C@H](O)[C@H]2O)OC2C[C@@H](N)[C@@H](O[C@H]3[C@H](O)[C@@H](O)[C@H](N)C[C@@H]3N)OC2[C@@H]1O (stereo partly drawn) (plate: M 9-10) -0.16
CC1(C)O[C@H]2CC(=O)OC[C@]23[C@H]2CC[C@@]4(C)[C@H](c5ccoc5)OC(=O)[C@H]5O[C@]54[C@]2(C)C(=O)C[C@@H]13 (plate: M 21-22) 0.384
NCCCC(=O)O [gamma-AMINOBUTYRICACID] (plate: M 17-18) 0.697
CC(C)CCC[C@@H](C)[C@H]1CC[C@H]2[C@@H]3CC(=O)[C@H]4C[C@@H](O)CC[C@]4(C)[C@H]3CC[C@]12C [5alpha-CHOLESTAN-3beta-OL-6-ONE] (plate: M 15-16) 0.49
CCCCCCCCCCCCCCCCCCCCCCO (plate: M 13-14) 0.523
CC(=O)Oc1cc(OC(C)=O)c2c(c1)O[C@H](c1ccc(OC(C)=O)c(OC(C)=O)c1)[C@@H](OC(C)=O)C2 (plate: M 21-22) -0.0724
CN[C@H](CC(=O)O)C(=O)O (plate: M 21-22) 0.377
NS(=O)(=O)c1cc2c(cc1Cl)NC(C(Cl)Cl)NS2(=O)=O (stereo not drawn) (plate: M 5-6) 0.0914
CN[C@@H]1[C@H](O)[C@H](NC)[C@H]2O[C@@]3(O)C(=O)C[C@@H](C)O[C@H]3O[C@@H]2[C@H]1O (plate: M 5-6) -0.39
Cc1onc(-c2ccccc2Cl)c1C(=O)N[C@@H]1C(=O)N2[C@@H]1SC(C)(C)[C@@H]2C(=O)O (plate: M 1-2) 0.205
COc1c(CC(=O)c2cc3c(cc2O)OC(C)(C)C(O)C3)ccc2c1C=CC(C)(C)O2 (stereo not drawn) (plate: M 15-16) 0.541
C=CC(C1=CC(=O)C(OC)=CC1=O)c1ccccc1 (stereo not drawn) (plate: M 15-16) -0.435
C[C@H]1c2cccc(O)c2C(=O)C2=C(O)[C@]3(O)C(=O)C(C(N)=O)=C(O)[C@@H](N(C)C)[C@@H]3[C@@H](O)[C@@H]21 (plate: M 3-4) -0.176
C[C@](N)(Cc1ccc(O)c(O)c1)C(=O)O (plate: M 3-4) -0.421
Clc1ccc(C(Cn2ccnc2)OCc2ccsc2Cl)c(Cl)c1 (stereo not drawn) (plate: M 11-12) -0.827
C[C@@H]1CC[C@H]2[C@](C)(CO)[C@@H](O)CC[C@]2(C)[C@@]12CC[C@@](CO)(CCO)O2 (plate: M 19-20) 0.621
O=C(O)C1CC([C@@H]2CCCCN2)CN2CCCCC12 (stereo partly drawn) (plate: M 19-20) 0.375
COc1ccc2c(c1)OC/C(=C/c1ccc(OC)c(OC)c1)C2=O (plate: M 21-22) -0.0395
COc1cc(C(=O)NCc2ccc(OCCN(C)C)cc2)cc(OC)c1OC (plate: M 5-6) -0.0754
CCc1nc(N)nc(N)c1-c1ccc(Cl)cc1 (plate: M 5-6) 0.125
CC(=O)[C@@]1(O)CC[C@H]2[C@@H]3C[C@H](C)C4=CC(=O)C=C[C@]4(C)[C@@]3(F)[C@@H](O)C[C@@]21C (plate: M 3-4) -0.119
CC(C)c1c(O)c(-c2cc3c(c(C(C)C)c2O)CCC2C(C)(C)CCC[C@]32C)cc2c1CCC1C(C)(C)CCC[C@]21C (stereo partly drawn) (plate: M 13-14) 0.698
C1CCC(C(CC2CCCCN2)C2CCCCC2)CC1 (stereo not drawn) (plate: M 7-8) 0.188
COc1ccc(/C=C/C(=O)c2ccc(O)cc2O)cc1 (plate: M 19-20) -0.214
O=C(O)c1cn(C2CC2)c2cc(N3CCNCC3)c(F)cc2c1=O (plate: M 9-10) -0.556
COc1ccc2c(c1)OCC(Cc1ccc(OC)c(O)c1)C2=O (stereo not drawn) (plate: M 15-16) 0.192

Three structures already listed, ordered by molar mass, rising.
Tryptophan fluorescence intensity z-score, inactive:
COc1ccc(-c2coc3cc(OC)ccc3c2=O)cc1 (plate: M 15-16) 0.421
CCCCCCCCCCCCCCCCCCCCCCO (plate: M 13-14) 0.523
CC[C@]1(O)C[C@H]2CN(CCc3c([nH]c4ccccc34)[C@@](C(=O)OC)(c3cc4c(cc3OC)N(C=O)[C@H]3[C@@](O)(C(=O)OC)[C@H](OC(C)=O)[C@]5(CC)C=CCN6CC[C@]43[C@@H]65)C2)C1 (plate: M 11-12) -0.708
